## Primary screen of a compound library

Amino acid sequences for entries named in this document (tags omitted). Residues count along the entry.
UniProt P9WNZ1, whole entry: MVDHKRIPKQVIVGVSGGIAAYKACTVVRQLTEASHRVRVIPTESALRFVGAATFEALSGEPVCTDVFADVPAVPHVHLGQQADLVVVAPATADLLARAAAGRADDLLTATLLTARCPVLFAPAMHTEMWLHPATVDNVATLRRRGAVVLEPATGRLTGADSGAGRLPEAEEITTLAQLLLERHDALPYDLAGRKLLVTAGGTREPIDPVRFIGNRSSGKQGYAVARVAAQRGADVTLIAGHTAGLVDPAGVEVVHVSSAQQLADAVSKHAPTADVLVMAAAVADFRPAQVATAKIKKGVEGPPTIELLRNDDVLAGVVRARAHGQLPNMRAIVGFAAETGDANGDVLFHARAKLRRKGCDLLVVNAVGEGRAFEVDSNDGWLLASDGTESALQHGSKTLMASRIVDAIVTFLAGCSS
UniProt I6X8D2, whole entry: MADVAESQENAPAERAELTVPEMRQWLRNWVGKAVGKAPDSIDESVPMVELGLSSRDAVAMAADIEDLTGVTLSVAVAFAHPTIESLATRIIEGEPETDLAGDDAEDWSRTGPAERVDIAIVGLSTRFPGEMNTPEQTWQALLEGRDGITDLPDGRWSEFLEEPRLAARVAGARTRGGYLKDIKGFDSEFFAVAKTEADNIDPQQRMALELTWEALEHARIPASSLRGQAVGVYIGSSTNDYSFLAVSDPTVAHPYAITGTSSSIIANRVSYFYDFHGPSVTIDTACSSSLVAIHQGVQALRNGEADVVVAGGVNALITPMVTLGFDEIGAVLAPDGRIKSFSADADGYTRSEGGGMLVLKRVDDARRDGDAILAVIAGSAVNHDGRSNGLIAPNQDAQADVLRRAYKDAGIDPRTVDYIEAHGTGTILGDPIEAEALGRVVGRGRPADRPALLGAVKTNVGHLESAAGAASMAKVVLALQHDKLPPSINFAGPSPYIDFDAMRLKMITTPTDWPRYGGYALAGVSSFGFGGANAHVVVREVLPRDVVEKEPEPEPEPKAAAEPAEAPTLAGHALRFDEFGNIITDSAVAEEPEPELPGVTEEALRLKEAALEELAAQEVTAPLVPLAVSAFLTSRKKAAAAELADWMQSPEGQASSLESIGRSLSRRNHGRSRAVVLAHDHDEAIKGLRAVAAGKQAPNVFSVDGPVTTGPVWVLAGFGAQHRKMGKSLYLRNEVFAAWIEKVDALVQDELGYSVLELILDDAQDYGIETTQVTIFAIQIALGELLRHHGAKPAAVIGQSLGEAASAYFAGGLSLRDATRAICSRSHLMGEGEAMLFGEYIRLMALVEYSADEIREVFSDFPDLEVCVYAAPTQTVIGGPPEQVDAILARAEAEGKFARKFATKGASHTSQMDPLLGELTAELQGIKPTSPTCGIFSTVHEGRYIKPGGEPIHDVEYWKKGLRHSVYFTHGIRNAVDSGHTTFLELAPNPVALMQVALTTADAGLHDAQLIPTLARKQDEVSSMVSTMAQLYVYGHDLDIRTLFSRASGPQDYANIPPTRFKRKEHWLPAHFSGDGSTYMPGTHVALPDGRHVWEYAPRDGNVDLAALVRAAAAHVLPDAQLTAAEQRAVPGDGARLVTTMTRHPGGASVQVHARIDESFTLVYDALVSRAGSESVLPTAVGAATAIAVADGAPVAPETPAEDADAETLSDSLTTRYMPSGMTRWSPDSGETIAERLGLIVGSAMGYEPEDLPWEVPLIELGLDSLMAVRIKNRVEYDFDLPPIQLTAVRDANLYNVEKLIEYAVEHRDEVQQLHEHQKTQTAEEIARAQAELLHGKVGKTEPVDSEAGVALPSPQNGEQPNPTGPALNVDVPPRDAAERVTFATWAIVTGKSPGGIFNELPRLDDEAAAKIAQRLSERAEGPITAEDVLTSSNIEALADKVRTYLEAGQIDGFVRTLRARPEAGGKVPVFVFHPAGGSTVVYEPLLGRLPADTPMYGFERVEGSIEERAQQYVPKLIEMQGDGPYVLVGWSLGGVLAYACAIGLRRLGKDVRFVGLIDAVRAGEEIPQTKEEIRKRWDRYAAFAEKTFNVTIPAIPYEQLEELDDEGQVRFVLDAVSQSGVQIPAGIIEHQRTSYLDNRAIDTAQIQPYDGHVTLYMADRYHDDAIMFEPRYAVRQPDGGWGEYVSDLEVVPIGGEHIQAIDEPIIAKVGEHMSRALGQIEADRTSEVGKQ
UniProt P9WFT3, whole entry: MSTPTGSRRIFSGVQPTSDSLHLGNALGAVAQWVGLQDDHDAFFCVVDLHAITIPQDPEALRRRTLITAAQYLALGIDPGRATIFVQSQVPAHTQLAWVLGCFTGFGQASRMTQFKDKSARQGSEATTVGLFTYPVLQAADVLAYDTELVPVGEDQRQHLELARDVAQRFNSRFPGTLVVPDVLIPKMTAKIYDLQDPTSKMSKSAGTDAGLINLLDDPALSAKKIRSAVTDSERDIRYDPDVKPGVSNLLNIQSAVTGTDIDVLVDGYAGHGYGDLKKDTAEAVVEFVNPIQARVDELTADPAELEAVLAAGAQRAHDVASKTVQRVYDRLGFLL
UniProt A4I591, 1-473: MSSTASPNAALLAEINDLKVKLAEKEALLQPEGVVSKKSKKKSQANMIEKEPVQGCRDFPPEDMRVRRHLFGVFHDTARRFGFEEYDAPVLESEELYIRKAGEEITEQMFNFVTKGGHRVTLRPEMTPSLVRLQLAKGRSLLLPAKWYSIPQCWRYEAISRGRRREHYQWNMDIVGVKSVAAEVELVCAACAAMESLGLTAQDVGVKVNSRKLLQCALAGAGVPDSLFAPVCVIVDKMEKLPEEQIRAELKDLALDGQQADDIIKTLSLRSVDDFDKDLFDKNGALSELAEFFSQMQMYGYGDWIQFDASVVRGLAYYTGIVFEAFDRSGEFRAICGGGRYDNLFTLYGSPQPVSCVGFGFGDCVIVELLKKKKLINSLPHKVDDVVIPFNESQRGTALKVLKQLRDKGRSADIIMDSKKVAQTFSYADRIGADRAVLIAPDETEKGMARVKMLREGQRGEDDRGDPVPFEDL

From ChEMBL document CHEMBL3988442, “University of Dundee, Small-Polar-MMV Screening Library” (2021).

CoaBC: 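Coenzyme A biosynthesis protein CoaBC, Mycobacterium tuberculosis (UniProt P9WNZ1). Enzyme assay of CoaBC with a phosphate dye (Biomol Green) read at 650 nm. Tested at 30 µM. Direction is inferred from only a few compounds that gave an IC50; most scored high, so higher reads as stronger inhibition. Most strong results did not repeat in a second test. Of about 67,000 compounds tested this way, about 40 (0.06%) reached 50% or more in at least one test.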
Pks13 thioesterase: 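Enzyme assay of the thioesterase domain of polyketide synthase 13; the read-out is not stated. Target: Polyketide synthase Pks13, Mycobacterium tuberculosis (UniProt I6X8D2). Tested at 30 µM. The record gives no direction; the compounds picked for IC50 retests had high values, so higher reads as stronger inhibition. Size under these conditions: about 67,000 compounds, about 300 of them at 50% or above in at least one test.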
MtTrpRS: 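Enzyme assay of tryptophanyl-tRNA synthetase; the read-out is not stated. Target: Tryptophan-tRNA ligase, Mycobacterium tuberculosis (UniProt P9WFT3). Tested at 10 µM. Direction is not recorded; retested compounds ran higher, which suggests that high means inhibition. About 65,000 compounds were tested under these conditions; 0.098% (about 64) showed 50% or more at least once.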
LiHisRS: 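Enzyme assay of histidyl-tRNA synthetase; the read-out is not stated. Target: Histidine-tRNA ligase, Leishmania infantum (UniProt A4I591). Compounds at 30 µM. The record gives no direction; compounds that gave an IC50 in retests scored well above the rest, so higher reads as stronger inhibition. The assay is labelled LdHisRS but filed under L. infantum. About 69,000 compounds were tested under these conditions; 0.6% (about 410) showed 50% or more at least once.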

The filed quantity is “Percent Effect” (%).
The record does not define 0% and 100%; most values in the screen are far below 50% and negative numbers occur (in some assays of this library far below -100).
Compounds were drawn at random from those tested, without regard to their results.
Two or more numbers in one place are separate tests of the same structure; such repeats can differ widely.
A dash means the value is not listed here; it may have been measured.

structure	CoaBC	Pks13 thioesterase	MtTrpRS	LiHisRS
CSCCCN(CCN1CCOCC1)Cc1ccco1	8.148	-15.5	-5.795	16.78
CC(Cn1cccn1)NCc1cccc(C#N)c1 (stereo not given)	-1.844	-12.78	1.805	10
O=C([C@@H]1C[C@@H]2CCN(Cc3ccoc3)C[C@H]2O1)N1CCCC1	3.21	-11.55	-	2.727
Fc1ccccc1CN1CCCC(NC2CCOCC2)C1 (stereo not given)	1.378	-13.5	3.401	8.163
CCC(CC)c1cc(C(=O)N2CCN(C(C#N)C(C)C)CC2)on1 (stereo not given)	5.484	-27.82	2.651	14.47
COCCCN1Cc2cccc(NC(=O)C(C)(C)C)c2C1	1.653	-9.197	-2.245	20.54
O=C(NCCNc1cnccn1)N1CCCC1	3.394	-4.442	-3.021	13.51
CCC1CN(c2ncnc3nc[nH]c23)CCO1 (stereo not given)	1.899	1.135	3.932	22.5
CCc1nccn1CC(=O)Nc1cccc(C(=O)N(C)C)c1	-4.096	-5.896	0.712	14.29
CN(Cc1nccs1)c1nccc(N2CCN[C@H]3CS(=O)(=O)C[C@H]32)n1	-1.814	-13.46	-1.469	14.52
O=C(CN1CCC(c2cc(=O)n3c(n2)CCCCC3)CC1)N1CCCC1	-1.46	2.419	-6.667	-15.79
Cc1cccc(CN2C[C@H]3C[C@H](C(=O)NCc4cccnc4)[C@@H](C2)O3)c1	-	2.63	4.942	10.26
Cc1ccc(CC(=O)N2CCC(Nc3ccc(C)nn3)CC2)cn1	-2.112	-7.644	-4.685	22.81
O=C(c1ccno1)N1CC[C@@H]2O[C@@H](COCCN3CCCC3)CC[C@@H]21	6.941	-25.13	4.272	12.03
Cc1noc(C)c1CN1CCC2(CCN(Cc3cccc(F)c3)CC2)C1	1.98	-15.61	-	8.108
CCO[C@@H]1CCN(C(=O)c2ccc[nH]2)[C@@H]1Cc1cccnc1	2.101	3.445	0.6823	7
Cn1cccc1C(=O)NCc1cn2c(n1)CN(CC1CCOCC1)CC2	-1.408	-5.592	6.298	17.28
O=C1NCc2ccccc2CC12CCN(Cc1ccncc1Cl)C2 (stereo not given)	7.368	-9.199	-5.618	1.379
CC(C)NC1CCc2c(ccc(=O)n2CCN2CCOCC2)C1 (stereo not given)	2.917	-27.8	-1.763	7.692
COc1ncccc1NC(=O)N1CCC(c2ccc(O)cc2)CC1	0.3745	-5.39	-1.564	11.57
CN1C[C@@H]2CN(Cc3ccsc3)CCC[C@]2(C(=O)O)C1	-1.089	-29.42	-6.858	19.3
O=C(Cn1cccc2cc(-c3ccc(F)cc3)nc1-2)N1CCC(O)CC1	15.38	35.18	2.264	-9.929
Cc1ccnc(NC(=O)C2CCN(CCCc3cn[nH]c3)CC2)c1	2.273	-25.88	-2.591	5.263
O=C(c1ccc(-c2ccccc2)[nH]c1=O)N1CCCn2ncnc21	2.593	-7.721	-1.5	17.46
O=C(C1CCC1)N1CCOc2cccc(F)c21	-3.984	2.974	22.45	35.62
CN(Cc1cnccn1)C(=O)[C@@]12CNC[C@@H]1CN(Cc1ccccc1)C2	2.155	-44.72	3.405	18.99
Nc1nc2c(c(N3CCCC(c4nnc5ccccn45)C3)n1)CCNC2 (stereo not given)	1.205	-13.25	-3.003	28.36
Cc1nc(C)n(C2CCCN(C(=O)c3sccc3C)C2)n1 (stereo not given)	2.1	-3.389	-5.501	11.86
CNC(=O)[C@@H]1CN(C(=O)C(C)C)C[C@H]1c1ccnc(N2CCCC2)n1	0	3.084	-3.771	13.42
CC(C(=O)O)N1CC2(CCC1=O)CCN(C/C=C/c1ccccc1)CC2 (stereo not given)	4.092	-6.085	0	14.75
Cc1noc(CCCC(=O)N(CCC(=O)O)Cc2ccc(F)c(F)c2)n1	-2.421	-1.542	-0.4428	2.174
COC(=O)CCC(=O)N1CCC2(CN(Cc3cccc(Cl)c3)C2)C1	0.618	-44.73	2.502	15
O=C1COC2(CCN(C(=O)[C@H]3CCCO3)CC2)CN1Cc1ccccn1	-1.486	-1.674	-3.434	-13.27
COc1ccc(CN2CCCC2)cc1Oc1ccc2c(c1)CC(CN)O2 (stereo not given)	4.099	9.076	-3.329	25.83
CC1c2cc(F)ccc2CCN1CCS(=O)(=O)C(C)C (stereo not given)	5.217	-20.24	-0.867	15.18
CC1(C)Oc2ccc(S(=O)(=O)NCCCn3ccnc3)cc2NC1=O	9.693	-73.58	1.592	2.837
COc1ccc(CN2CCC3(CC(Nc4ccncn4)C3)C2)c(OC)c1 (stereo not given)	0.1309	-27.91	2.25	11.43
N#Cc1ccc(CN2CCc3sccc3C2)c(F)c1	6.426	-9.956	0.6369	31.34
O=C(CC1CC1)N[C@@H]1CN(Cc2ccc(F)cc2)C[C@@H]2CCCO[C@@H]21	5.212	-34.64	-4.068	11.43
COc1ccc(C)cc1CSCCn1nc2ccccn2c1=O	9.487	-20.78	-3.049	0
CCc1cc(C(=O)N[C@H]2CN(CCS(C)(=O)=O)C[C@@H]2C2CC2)[nH]n1	3.289	0.3207	2.72	16.13
CNC(=O)C1CN(Cc2cc(C)on2)CCN(C2CCOCC2)C1 (stereo not given)	2.577	3.613	-7.091	12.77
CNc1cc(C)nc(C2CCN(CCO)CC2)n1	11.86 & 35.9	-59.07	-3.981	7.092
CN1CCO[C@@H]2CN(S(=O)(=O)c3ccccc3)C[C@@H]2C1	-5.212	-39.02	-	-3.846
O=C(O)c1ccccc1-n1cnc(CN2CCc3ccccc3C2)c1	-7.975	-18.77	11.87	2.837
CCOc1cccc(C(=O)N2CCN(c3nccc(OC)n3)CC2)c1	3.84	-26.89	-3.216	-4.545
CN(Cc1ccco1)Cc1cncc2c1CCN(Cc1ccoc1)C2	3.457	-7.011	-	-2.727
Cc1cc(CNc2ccc(CC(=O)N(C)c3ccccc3)cc2)no1	-5.882	29.21	0.1715	14.53
NC(=O)c1ccc2c(c1)nc1n2CCN(Cc2ccco2)C1	4.993	-14.53	-4.979	31.43
O=c1cc(C2CCNCC2)nc(CCCc2ccccc2)[nH]1	6.157	-12.22	-4.941	-0.885
Cc1ccc(C)c(CN2CCCn3nc(CNS(C)(=O)=O)cc3C2)c1	4.365	-8.602	6.318	2.778
COCCNC(=O)c1cn(C(C)(C)C)c2ncccc12	4.319	-9.358	1.917	17.14
CN(CC(=O)N1CCOCC(CO)C1)Cc1ccccn1 (stereo not given)	-2.273	-21.01	-1.708	6.557

The last 4 entries again:

O=c1cc(C2CCNCC2)nc(CCCc2ccccc2)[nH]1 read CoaBC: 6.157%; Pks13 thioesterase: -12.22%; MtTrpRS: -4.941%; LiHisRS: -0.885%.
Cc1ccc(C)c(CN2CCCn3nc(CNS(C)(=O)=O)cc3C2)c1 read CoaBC: 4.365%; Pks13 thioesterase: -8.602%; MtTrpRS: 6.318%; LiHisRS: 2.778%.
COCCNC(=O)c1cn(C(C)(C)C)c2ncccc12 read CoaBC: 4.319%; Pks13 thioesterase: -9.358%; MtTrpRS: 1.917%; LiHisRS: 17.14%.
CN(CC(=O)N1CCOCC(CO)C1)Cc1ccccn1 (stereo not given) read CoaBC: -2.273%; Pks13 thioesterase: -21.01%; MtTrpRS: -1.708%; LiHisRS: 6.557%.